For the assay, the target named is cynomolgus TrkB receptor (cynomolgus). In words: recombinant TrkB in a heterologous cell line, primary cells or human iPSC derived cells.

No constants are given. Whether binding was seen depends on the method and setting. Some entries that bind do so weakly or less than the wild type.

B1: 1G11 (murine TrkB agonist monoclonal antibody) (antibody, V domains shown)
VH: QVQLQQSGDDLVKPGASVKLSCKASGYTFTSYYINWIKQRPGQGLECIGRIAPGNTYYNEIFKGKAILTVDTSSSTAYIQLSSLSSEDSGVYFCARRGYEGALDYWGQGTSVTVSS
VL: DIVLTQSPATLSVTPGDSVSLSCRASQRISNNLHWYQQKSHESPRLLIKYVSQSISGIPSRFSGSGSGTDFTLSINSVETEDFGMYFCQQSNSWPLTFGAGTKLELKR
For B1, the binding entry is given as “binds”.

Source of the values: US9914781.
